# Measured values published in patent US20070009961A1, “Identification of targeting component of herbal medicines from simplified HPLC spectrum using after flowing through immobilized receptor (AFTIR) method” (Academia Sinica, priority 2005, published 2007).
# At least one structure is not confirmed: it was looked up by name or label, or the drawing left a doubt.
# Tests used:
# [1] = test system: CD28-independent IL-2 response of Jurkat cells; test: Jurkat T-cell IL-2 secretion (ELISA), CD28-independent stimulation (PMA plus ionomycin); format: cell-based, human
# Method: (§1) Stimulation of T-cell. Jurkat leukemic T cells were maintained in a humidified atmosphere of 5% CO2/95% air at 37° C. in RPMI-1640 medium (HyClone, Utah, USA) including penicillin, streptomycin and 10% heat-inactivated FBS. Two modes of activations were used for the present experiments: anti-CD3 plus anti-CD28 (CD28-dependent stimulation) and PMA plus ionomycin (CD28-independent stimulation). For experiment of CD28-dependant stimulation, flat-bottom 96-well plates were coated with 10 μg/ml of anti-CD3 for 24 h at 4° C. Wells anti-CD3 were washed twice with PBS. After washing, the unbounded anti-CD3 was removed. Jurkat T-cells (200 μl 2×10^6 cells/ml) with soluble anti-CD28 (1 μg/ml) were then added into the wells. The cells were activated by anti-CD3 already existing in the wells. Upon the activation, the cell solution was stayed for 24 h. The supernatant (100 μl) of cell solution was then used for the measurement of IL-2 by enzyme-linked immuno-sorbent assay (ELISA). For experiment of CD28-indepentant stimulation, 200 μl Jurkat cell (5×10^5 cell/ml) were incubated with PMA (50 nM)/lonomycin (1 μg/ml) for 24 h. 100 μl supernatant was then used for IL-2 measurement by ELISA. […] IL-2 concentration of T-cell was determined by following the instruction from manufacturer (Biosource; California, US). […] Concentration of IL-2 was then measured with microplate reader. […]
# [2] = test system: CD28 dependent IL-2 expression in Jurkat cells; test: Jurkat T-cell IL-2 secretion (ELISA), CD28-dependent stimulation (anti-CD3 plus anti-CD28); format: cell-based, human
# Method: as §1
smiles,measurement,setting,value
"C=CC[C@@H]1/C=C(\C)C[C@H](C)C[C@H](OC)[C@H]2O[C@@](O)(C(=O)C(=O)N3CCCC[C@H]3C(=O)O[C@H](/C(C)=C/[C@@H]3CC[C@@H](O)[C@H](OC)C3)[C@H](C)[C@@H](O)CC1=O)[C@H](C)C[C@@H]2OC [FK506, reference compound]",effect on IL-2 response (in words),[1],eradicated
same,effect on IL-2 response (in words),[2],eradicated
